Source: PMC6066478, “Structural visualization of RNA polymerase III transcription machineries” (Cell Discovery, 2018)
Results are given in words; binding and its absence hold for the method and conditions named. Some binding calls cover weakened binding; strength is not graded here. Tags and fused reporters may be left off the sequences shown.

Tests used:
[1] = molecular target: T1, C34 subunit of Pol III (Saccharomyces cerevisiae) (UniProt P32910); test: cryo-EM structure; Pol III OC, 4.1 Å (TFIIIB 4.7 Å with soft mask): same assembly on the OC scaffold with a 10-nt mismatched bubble; both purified
T1 sequence: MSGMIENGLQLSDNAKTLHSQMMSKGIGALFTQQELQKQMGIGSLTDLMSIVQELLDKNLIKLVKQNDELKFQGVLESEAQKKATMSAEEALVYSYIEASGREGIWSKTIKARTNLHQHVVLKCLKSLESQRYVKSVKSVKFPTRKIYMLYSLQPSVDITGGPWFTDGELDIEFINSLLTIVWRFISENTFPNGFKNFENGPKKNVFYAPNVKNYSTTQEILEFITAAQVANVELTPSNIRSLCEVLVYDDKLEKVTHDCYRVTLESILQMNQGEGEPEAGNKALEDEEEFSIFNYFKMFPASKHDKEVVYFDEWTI

[2] = molecular target: T2, TATA box-binding protein (TBP) core domain, the TBPc part of the chimera Brf1N-TBPc-Brf1C (Saccharomyces cerevisiae) (UniProt P13393); test: as above
T2 sequence: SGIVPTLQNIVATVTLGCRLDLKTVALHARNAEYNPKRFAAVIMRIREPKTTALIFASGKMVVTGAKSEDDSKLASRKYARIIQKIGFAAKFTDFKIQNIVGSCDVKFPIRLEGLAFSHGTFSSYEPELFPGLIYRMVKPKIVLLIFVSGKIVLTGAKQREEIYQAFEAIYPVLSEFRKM

[3] = molecular target: T1, C34 subunit of Pol III (Saccharomyces cerevisiae); test: cryo-EM structure; Pol III nOC (natural OC), 4.8 Å: same assembly on the CC scaffold, a fully complementary duplex that was found melted; both purified
[4] = molecular target: T2, TATA box-binding protein (TBP) core domain, the TBPc part of the chimera Brf1N-TBPc-Brf1C (Saccharomyces cerevisiae); test: as above
[5] = molecular target: T1, C34 subunit of Pol III (Saccharomyces cerevisiae); test: cryo-EM structure; Pol III ITC, 4.1 Å: Pol III (~1 µM) with biotinylated tN(GUU)C promoter scaffold (16-nt mismatched bubble, 6-nt RNA), then Brf1N-TBPc-Brf1C and Bdp1 at about 2:1 to Pol III, room temperature; held on streptavidin beads, eluted with EcoRI-HF, crosslinked with 0.19% glutaraldehyde; both purified
[6] = molecular target: T2, TATA box-binding protein (TBP) core domain, the TBPc part of the chimera Brf1N-TBPc-Brf1C (Saccharomyces cerevisiae); test: as above
[7] = molecular target: T3, Brf1 (TFIIB-related factor), the Brf1N and Brf1C parts of the chimera Brf1N-TBPc-Brf1C (Saccharomyces cerevisiae) (UniProt P29056); test: cryo-EM structure; Pol III OC, 4.1 Å (TFIIIB 4.7 Å with soft mask): same assembly on the OC scaffold with a 10-nt mismatched bubble; both purified
T3 sequence: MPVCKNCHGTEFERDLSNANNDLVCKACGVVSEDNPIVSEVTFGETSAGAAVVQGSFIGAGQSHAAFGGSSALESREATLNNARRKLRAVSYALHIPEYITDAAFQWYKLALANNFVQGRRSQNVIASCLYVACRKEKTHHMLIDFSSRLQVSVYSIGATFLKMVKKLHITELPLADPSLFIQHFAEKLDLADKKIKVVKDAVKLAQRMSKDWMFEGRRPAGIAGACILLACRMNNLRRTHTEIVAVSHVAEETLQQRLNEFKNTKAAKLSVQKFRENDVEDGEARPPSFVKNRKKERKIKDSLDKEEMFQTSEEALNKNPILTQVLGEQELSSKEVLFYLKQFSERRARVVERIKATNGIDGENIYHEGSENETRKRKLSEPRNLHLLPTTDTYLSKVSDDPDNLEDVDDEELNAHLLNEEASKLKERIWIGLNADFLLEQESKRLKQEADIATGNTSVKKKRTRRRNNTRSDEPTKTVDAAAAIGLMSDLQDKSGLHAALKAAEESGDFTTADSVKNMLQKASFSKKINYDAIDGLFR

[8] = molecular target: T3, Brf1 (TFIIB-related factor), the Brf1N and Brf1C parts of the chimera Brf1N-TBPc-Brf1C (Saccharomyces cerevisiae); test: cryo-EM structure; Pol III nOC (natural OC), 4.8 Å: same assembly on the CC scaffold, a fully complementary duplex that was found melted; both purified
[9] = molecular target: T3, Brf1 (TFIIB-related factor), the Brf1N and Brf1C parts of the chimera Brf1N-TBPc-Brf1C (Saccharomyces cerevisiae); test: cryo-EM structure; Pol III ITC, 4.1 Å: Pol III (~1 µM) with biotinylated tN(GUU)C promoter scaffold (16-nt mismatched bubble, 6-nt RNA), then Brf1N-TBPc-Brf1C and Bdp1 at about 2:1 to Pol III, room temperature; held on streptavidin beads, eluted with EcoRI-HF, crosslinked with 0.19% glutaraldehyde; both purified

Measured: binding

B1: Brf1 (TFIIB-related factor), the Brf1N and Brf1C parts of the chimera Brf1N-TBPc-Brf1C (domain or fragment, UniProt P29056 1-382; P29056 439-596)
chain: MPVCKNCHGTEFERDLSNANNDLVCKACGVVSEDNPIVSEVTFGETSAGAAVVQGSFIGAGQSHAAFGGSSALESREATLNNARRKLRAVSYALHIPEYITDAAFQWYKLALANNFVQGRRSQNVIASCLYVACRKEKTHHMLIDFSSRLQVSVYSIGATFLKMVKKLHITELPLADPSLFIQHFAEKLDLADKKIKVVKDAVKLAQRMSKDWMFEGRRPAGIAGACILLACRMNNLRRTHTEIVAVSHVAEETLQQRLNEFKNTKAAKLSVQKFRENDVEDGEARPPSFVKNRKKERKIKDSLDKEEMFQTSEEALNKNPILTQVLGEQELSSKEVLFYLKQFSERRARVVERIKATNGIDGENIYHEGSENETRKRKLSEPRNLHLLPTTDTYLSKVSDDPDNLEDVDDEELNAHLLNEEASKLKERIWIGLNADFLLEQESKRLKQEADIATGNTSVKKKRTRRRNNTRSDEPTKTVDAAAAIGLMSDLQDKSGLHAALKAAEESGDFTTADSVKNMLQKASFSKKINYDAIDGLFR
binds: [1] | [2] | [3] | [4] | [5] | [6]

B2: Bdp1 (B double prime) (protein, UniProt P46678 1-594)
chain: MSSIVNKSGTRFAPKVRQRRAATGGTPTPKPRTPQLFIPESKEIEEDNSDNDKGVDENETAIVEKPSLVGERSLEGFTLTGTNGHDNEIGDEGPIDASTQNPKADVIEDNVTLKPAPLQTHRDQKVPRSSRLASLSKDNESRPSFKPSFLDSSSNSNGTARRLSTISNKLPKKIRLGSITENDMNLKTFKRHRVLGKPSSAKKPAGAHRISIVSKISPPTAMTDSLDRNEFSSETSTSREADENENYVISKVKDIPKKVRDGESAKYFIDEENFTMAELCKPNFPIGQISENFEKSKMAKKAKLEKRRHLRELRMRARQEFKPLHSLTKEEQEEEEEKRKEERDKLLNADIPESDRKAHTAIQLKLNPDGTMAIDEETMVVDRHKNASIENEYKEKVDENPFANLYNYGSYGRGSYTDPWTVEEMIKFYKALSMWGTDFNLISQLYPYRSRKQVKAKFVNEEKKRPILIELALRSKLPPNFDEYCCEIKKNIGTVADFNEKLIELQNEHKHHMKEIEEAKNTAKEEDQTAQRLNDANLNKKGSGGIMTNDLKVYRKTEVVLGTIDDLKRKKLKERNNDDNEDNEGSEEEPEIDQ
binds: [7] | [8] | [9]
